Reference: ChEMBL document CHEMBL1134401, “Property-based design: optimization of drug absorption and pharmacokinetics” (J Med Chem, 2001)

Experiment: Partition coefficient (logD)
Conditions: octanol/water

Question: For `COC(=O)C1=C(C)NC(C)=C(C(=O)OC)C1c1ccccc1[N+](=O)[O-]` [NIFEDIPINE], which logD is on record?
Answer: 3.2
